According to the supplement of paper PMC10849652:
The list shows a part of the results. Residues, ends and D or L forms follow the SMILES beside them. *: point of attachment. Cbz = O=C(OCc1ccccc1)*

Sequences of proteins named here, by UniProt entry; tags and fusion partners are left off. A change or cut given only in a name is not applied to a line headed by its entry.
UniProt O95817, whole entry, looked up: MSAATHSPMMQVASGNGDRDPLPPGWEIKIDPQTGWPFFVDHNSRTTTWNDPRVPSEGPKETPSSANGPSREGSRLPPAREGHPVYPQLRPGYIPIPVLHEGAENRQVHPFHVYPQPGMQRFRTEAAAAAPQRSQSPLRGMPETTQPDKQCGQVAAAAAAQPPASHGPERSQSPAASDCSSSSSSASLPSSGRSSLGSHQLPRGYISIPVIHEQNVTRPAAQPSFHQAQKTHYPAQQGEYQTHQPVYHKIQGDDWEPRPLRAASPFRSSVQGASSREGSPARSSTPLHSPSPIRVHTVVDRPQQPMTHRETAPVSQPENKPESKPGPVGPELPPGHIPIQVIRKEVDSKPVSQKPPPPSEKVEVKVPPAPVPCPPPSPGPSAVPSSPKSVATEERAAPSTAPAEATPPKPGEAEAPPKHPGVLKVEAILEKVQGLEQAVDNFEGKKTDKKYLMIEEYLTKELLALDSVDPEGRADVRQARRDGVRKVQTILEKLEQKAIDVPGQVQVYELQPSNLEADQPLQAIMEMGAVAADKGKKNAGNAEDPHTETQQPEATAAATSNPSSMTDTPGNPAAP
UniProt O15392, whole entry, looked up: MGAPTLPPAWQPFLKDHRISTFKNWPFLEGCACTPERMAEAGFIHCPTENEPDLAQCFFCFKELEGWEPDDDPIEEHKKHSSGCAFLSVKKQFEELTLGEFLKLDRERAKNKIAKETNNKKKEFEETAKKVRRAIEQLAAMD
UniProt O43505: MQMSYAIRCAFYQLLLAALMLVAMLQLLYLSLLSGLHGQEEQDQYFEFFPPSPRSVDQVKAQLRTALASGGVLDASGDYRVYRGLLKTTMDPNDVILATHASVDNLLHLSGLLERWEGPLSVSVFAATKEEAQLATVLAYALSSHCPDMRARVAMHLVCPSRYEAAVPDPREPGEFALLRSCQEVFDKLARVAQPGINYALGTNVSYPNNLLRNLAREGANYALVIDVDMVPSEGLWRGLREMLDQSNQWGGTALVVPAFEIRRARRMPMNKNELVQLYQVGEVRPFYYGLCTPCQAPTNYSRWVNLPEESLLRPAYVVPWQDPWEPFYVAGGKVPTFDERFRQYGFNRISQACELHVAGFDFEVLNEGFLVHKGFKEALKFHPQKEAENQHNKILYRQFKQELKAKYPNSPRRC
UniProt Q13867: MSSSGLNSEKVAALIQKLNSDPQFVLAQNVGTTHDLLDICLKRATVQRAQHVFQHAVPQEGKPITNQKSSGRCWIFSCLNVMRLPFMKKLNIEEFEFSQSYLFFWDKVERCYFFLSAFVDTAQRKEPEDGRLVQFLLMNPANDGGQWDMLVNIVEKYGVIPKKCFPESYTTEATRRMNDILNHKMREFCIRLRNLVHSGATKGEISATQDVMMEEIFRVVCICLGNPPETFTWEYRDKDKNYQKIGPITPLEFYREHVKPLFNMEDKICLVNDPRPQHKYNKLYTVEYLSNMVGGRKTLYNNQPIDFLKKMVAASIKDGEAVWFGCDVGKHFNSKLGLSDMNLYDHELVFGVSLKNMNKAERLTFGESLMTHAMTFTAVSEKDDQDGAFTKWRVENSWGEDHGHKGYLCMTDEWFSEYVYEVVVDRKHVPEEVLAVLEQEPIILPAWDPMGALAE
UniProt P21953: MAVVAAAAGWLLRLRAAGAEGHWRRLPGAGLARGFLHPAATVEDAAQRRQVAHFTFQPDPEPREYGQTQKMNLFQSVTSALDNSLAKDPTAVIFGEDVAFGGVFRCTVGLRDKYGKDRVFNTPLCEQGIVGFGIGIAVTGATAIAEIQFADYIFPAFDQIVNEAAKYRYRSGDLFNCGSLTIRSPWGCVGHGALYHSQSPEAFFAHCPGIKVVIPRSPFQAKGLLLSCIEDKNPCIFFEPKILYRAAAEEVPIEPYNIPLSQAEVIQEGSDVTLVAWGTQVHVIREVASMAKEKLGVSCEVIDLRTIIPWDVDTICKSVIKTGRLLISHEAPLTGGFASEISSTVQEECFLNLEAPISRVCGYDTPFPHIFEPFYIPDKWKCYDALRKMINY
UniProt O95429: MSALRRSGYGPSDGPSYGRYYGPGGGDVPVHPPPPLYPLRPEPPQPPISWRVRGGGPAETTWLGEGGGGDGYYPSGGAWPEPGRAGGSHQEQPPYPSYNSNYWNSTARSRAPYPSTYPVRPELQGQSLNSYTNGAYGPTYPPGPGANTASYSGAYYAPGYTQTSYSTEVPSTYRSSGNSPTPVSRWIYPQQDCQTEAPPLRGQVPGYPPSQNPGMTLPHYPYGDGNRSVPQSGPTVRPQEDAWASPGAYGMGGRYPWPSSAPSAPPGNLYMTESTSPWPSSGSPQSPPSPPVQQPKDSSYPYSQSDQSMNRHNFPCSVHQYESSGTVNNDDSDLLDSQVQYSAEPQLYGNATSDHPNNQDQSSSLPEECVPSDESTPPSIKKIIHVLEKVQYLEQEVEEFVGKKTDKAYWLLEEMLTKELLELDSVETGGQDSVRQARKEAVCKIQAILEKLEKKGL
UniProt Q6UW56: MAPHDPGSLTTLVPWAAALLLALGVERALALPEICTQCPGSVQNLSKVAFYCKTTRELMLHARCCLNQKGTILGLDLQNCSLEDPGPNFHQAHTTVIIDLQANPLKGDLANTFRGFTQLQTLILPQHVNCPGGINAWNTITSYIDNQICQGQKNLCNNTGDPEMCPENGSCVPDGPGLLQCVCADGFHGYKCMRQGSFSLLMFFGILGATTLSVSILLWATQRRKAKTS
UniProt O75882: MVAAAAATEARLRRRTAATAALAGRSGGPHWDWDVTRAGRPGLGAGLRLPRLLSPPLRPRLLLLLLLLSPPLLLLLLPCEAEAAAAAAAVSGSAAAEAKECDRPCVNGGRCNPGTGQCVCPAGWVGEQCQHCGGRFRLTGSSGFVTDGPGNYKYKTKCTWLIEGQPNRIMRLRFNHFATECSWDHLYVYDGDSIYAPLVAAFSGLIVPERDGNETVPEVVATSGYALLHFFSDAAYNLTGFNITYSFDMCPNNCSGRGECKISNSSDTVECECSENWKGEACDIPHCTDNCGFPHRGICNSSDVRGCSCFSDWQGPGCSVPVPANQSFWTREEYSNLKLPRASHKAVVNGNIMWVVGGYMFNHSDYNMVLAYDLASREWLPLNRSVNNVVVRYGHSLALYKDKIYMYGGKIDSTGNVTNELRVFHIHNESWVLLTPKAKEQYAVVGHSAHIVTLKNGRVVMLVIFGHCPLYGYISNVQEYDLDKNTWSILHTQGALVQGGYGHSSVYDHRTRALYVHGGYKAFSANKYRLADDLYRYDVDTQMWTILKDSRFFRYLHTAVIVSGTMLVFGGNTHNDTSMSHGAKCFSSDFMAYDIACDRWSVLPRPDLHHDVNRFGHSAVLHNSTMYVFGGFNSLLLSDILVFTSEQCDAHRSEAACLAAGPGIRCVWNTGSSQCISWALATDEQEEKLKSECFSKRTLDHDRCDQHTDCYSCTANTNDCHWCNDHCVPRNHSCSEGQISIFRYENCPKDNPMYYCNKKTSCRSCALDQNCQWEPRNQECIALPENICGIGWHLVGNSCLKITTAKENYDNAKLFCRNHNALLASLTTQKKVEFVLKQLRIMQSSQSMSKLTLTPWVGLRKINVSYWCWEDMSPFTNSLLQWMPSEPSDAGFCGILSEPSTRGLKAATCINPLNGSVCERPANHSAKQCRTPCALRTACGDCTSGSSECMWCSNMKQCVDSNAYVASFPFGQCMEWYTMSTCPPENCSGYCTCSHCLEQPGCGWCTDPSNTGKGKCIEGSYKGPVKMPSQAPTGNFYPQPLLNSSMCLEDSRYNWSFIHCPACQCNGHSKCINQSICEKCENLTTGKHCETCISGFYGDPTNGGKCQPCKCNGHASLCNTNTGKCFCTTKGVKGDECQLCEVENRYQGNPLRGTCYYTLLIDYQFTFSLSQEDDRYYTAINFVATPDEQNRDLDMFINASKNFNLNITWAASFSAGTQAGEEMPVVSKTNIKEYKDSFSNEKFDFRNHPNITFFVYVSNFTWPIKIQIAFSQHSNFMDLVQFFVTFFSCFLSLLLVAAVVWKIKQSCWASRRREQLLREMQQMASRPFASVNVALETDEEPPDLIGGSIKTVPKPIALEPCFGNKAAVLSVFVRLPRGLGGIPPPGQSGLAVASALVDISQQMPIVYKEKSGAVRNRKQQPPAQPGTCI
UniProt Q9NYF8, whole entry, looked up: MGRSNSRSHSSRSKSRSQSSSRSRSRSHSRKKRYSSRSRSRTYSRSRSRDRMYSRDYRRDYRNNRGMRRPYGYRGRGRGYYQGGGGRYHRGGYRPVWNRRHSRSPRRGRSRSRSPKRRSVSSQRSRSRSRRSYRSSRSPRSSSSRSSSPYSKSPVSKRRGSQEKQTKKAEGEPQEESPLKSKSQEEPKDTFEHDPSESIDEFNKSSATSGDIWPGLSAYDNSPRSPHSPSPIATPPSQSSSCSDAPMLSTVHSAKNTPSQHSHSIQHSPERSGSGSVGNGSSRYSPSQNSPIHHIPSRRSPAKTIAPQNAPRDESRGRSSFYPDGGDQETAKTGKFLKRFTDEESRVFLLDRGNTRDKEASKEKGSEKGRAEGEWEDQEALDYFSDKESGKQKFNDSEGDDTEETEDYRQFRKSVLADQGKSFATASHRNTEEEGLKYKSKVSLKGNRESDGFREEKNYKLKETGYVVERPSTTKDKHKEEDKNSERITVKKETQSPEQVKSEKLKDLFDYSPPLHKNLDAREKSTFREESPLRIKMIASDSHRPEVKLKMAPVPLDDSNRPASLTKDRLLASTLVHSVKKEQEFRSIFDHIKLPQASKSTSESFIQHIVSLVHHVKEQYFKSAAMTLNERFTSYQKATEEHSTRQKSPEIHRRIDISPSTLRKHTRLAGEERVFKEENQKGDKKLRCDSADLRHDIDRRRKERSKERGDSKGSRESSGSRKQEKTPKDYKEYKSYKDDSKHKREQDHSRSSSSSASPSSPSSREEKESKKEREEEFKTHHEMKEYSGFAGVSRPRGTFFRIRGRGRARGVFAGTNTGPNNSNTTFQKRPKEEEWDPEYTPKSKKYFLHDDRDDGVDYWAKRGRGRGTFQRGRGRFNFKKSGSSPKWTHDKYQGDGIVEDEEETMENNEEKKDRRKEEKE
UniProt Q14CW9: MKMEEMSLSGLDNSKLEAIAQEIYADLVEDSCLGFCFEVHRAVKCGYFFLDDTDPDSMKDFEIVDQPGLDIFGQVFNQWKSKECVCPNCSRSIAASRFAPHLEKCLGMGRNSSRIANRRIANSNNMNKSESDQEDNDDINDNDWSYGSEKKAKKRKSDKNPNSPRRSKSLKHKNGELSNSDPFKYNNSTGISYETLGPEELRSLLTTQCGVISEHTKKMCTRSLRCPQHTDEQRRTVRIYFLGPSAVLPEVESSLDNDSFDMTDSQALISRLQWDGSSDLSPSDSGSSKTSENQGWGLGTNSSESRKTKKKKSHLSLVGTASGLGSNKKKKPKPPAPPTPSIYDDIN
UniProt P54252: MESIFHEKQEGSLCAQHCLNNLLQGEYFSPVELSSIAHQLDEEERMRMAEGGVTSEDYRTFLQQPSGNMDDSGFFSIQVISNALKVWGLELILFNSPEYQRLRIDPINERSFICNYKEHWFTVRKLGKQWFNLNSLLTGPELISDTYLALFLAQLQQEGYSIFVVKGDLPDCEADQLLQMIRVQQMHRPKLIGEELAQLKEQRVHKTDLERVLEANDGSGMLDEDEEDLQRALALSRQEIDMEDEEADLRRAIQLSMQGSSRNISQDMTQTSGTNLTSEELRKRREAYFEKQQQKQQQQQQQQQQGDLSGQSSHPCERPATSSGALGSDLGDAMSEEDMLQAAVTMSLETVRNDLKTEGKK
UniProt Q92934: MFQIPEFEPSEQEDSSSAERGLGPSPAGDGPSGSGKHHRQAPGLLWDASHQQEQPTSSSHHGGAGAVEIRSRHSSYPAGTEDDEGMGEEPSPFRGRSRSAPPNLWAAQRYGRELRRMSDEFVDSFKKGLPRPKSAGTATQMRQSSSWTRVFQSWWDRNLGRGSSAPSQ
UniProt Q14457, whole entry, looked up: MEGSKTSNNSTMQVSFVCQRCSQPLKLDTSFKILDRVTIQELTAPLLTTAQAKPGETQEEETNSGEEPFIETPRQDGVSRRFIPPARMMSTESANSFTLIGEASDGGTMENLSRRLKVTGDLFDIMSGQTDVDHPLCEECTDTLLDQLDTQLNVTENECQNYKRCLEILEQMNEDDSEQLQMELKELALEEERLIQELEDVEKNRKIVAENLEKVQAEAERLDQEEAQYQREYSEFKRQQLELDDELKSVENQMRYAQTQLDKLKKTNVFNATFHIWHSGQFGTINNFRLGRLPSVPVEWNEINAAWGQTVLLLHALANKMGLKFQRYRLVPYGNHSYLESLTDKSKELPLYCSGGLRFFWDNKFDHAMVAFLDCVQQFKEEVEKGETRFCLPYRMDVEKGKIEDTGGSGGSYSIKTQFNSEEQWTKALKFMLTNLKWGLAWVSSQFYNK

Experiments:
Assay in all cases: log2 fold change, soluble protein after heating vs DMSO (PISA); higher = thermal stabilisation; K562 cells, 10 uM, 30 min; active = over 0.2 and 3.5 SD of the protein, either way, in both replicates (recomputed)
erlotinib = compound: C#Cc1cccc(Nc2ncnc3cc(OCCOC)c(OCCOC)cc23)c1 [erlotinib]
Method in brief: (§1)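 K562 cells at 2×10^6 cells/mL were exposed to 10 μM compound for 30 min, then aliquots were heated for 3 min across 48°C-58°C, pooled, and extracted in PBS containing 0.5% NP-40 at 4°C. The supernatant after 21,000xg for 90 min was taken as soluble protein and measured by TMTpro 16plex LC-MS/MS with channel sums equalised. Thermal stability is reported relative to control samples, with values from duplicates. Fold changes are given on a log2 scale.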

[1] = compound: C/C(=N\NC(=O)C1=CC(=CC=C1)S(=O)(=O)N2CCOCC2)/C3=C(C=CC(=C3)Cl)O
Method in brief: as §1

[2] = compound: C1=CC(=C(C=C1Cl)C2=NC3=NC=CN=C3C(=N2)NC4=CC=NC=C4)F
Method in brief: as §1

[3] = compound: C1=CC(=CC=C1C2=NC3=C(N2)C=C(C=C3)C(=O)N)OC4=CC=C(C=C4)Cl
Method in brief: as §1

[4] = compound: C1=CC2=C(C=CC(=C2)/C=C\3/C(=O)NC(=NCC4=CC=CS4)S3)N=C1
Method in brief: as §1

[5] = compound: C1=CC2=NC=CN=C2C=C1/C=C/3\C(=O)NC(=O)S3
Method in brief: as §1

[6] = compound: C1=CC=C(C=C1)C2=NC(=C(N2)C3=CC=NC=C3)C4=CC(=C(C=C4)Cl)O
Method in brief: as §1

[7] = compound: C1=CC=C2C(=C1)C3=NNC4=CC=CC(=C43)C2=O
Method in brief: as §1

[8] = compound: C1CCN(C1)C(=O)NC2=CC=CC(=C2)NC3=NC=C(C(=N3)NCCC4=CN=CN4)Br
Method in brief: as §1

[9] = compound: C1CN(CCC1(CC2=CC=C(C=C2)Cl)N)C3=NC=NC4=C3C=CN4
Method in brief: as §1

IRAK-1-4 Inhibitor I = compound: C1COCCN1CCN2C3=CC=CC=C3N=C2NC(=O)C4=CC(=CC=C4)[N+](=O)[O-] [IRAK-1-4 Inhibitor I]
Method in brief: as §1

ibrutinib = compound: C=CC(=O)N1CCC[C@@H](n2nc(-c3ccc(Oc4ccccc4)cc3)c3c(N)ncnc32)C1 [ibrutinib]
Method in brief: as §1

[10] = compound: CC(=O)c1cnc2ccc(-c3cc(Cl)c(O)c(Cl)c3)nc2c1N[C@H]1CC[C@H](CN(C)C)CC1
Method in brief: as §1

ralimetinib = compound: CC(C)(C)Cn1c(N)nc2ccc(-c3[nH]c(C(C)(C)C)nc3-c3ccc(F)cc3)nc21 [ralimetinib]
Method in brief: as §1

[11] = compound: CC(C)(O)CC(=O)NCCn1ccc2ncnc(Nc3ccc(Oc4cccc(C(F)(F)F)c4)c(Cl)c3)c21
Method in brief: as §1

[12] = compound: CC(C)C1=C2N=C(C=C(N2N=C1)NCC3=CC=CC=C3)NCCCCCCN
Method in brief: as §1

[13] = compound: CC(C)C[C@@H](C=O)NC(=O)[C@H](CC(C)C)NC(=O)[C@H](CC(C)C)NC(=O)OCc1ccccc1
Method in brief: as §1

pinometostat = compound: CC(C)N(C[C@H]1O[C@@H](n2cnc3c(N)ncnc32)[C@H](O)[C@@H]1O)[C@H]1C[C@@H](CCc2nc3cc(C(C)(C)C)ccc3[nH]2)C1 [pinometostat]
Method in brief: as §1

[14] = compound: CC1=C(C(CC(=O)N1)C2=CC=C(C=C2)C(F)(F)F)C(=O)NC3=C(C=C4C(=C3)C=NN4)F
Method in brief: as §1

[15] = compound: CC1=C(C2=C(C=C1)C(=O)C3=CC=CC=C3N2CCCN)C
Method in brief: as §1

Measured: log2 fold change

BAG3 (UniProt O95817)
inactive: erlotinib 0.012 | [1] -0.024 | [2] 0.006 | [3] -0.01 | [4] 0.025 | [5] -0.008 | [6] -0.003 | [7] -0.044 | [8] 0.032 | [9] 0.031 | IRAK-1-4 Inhibitor I 0.021 | ibrutinib 0.017 | [10] -0.014 | ralimetinib -0.042 | [11] 0 | [12] 0.013 | [13] 0.056 | pinometostat -0.01 | [14] 0.006 | [15] -0.037

BIRC5 (UniProt O15392)
inactive: erlotinib -0.061 | [1] -0.039 | [2] -0.051 | [3] 0.044 | [4] -0.022 | [5] 0.065 | [6] -0.057 | [7] -0.109 | [8] 0.072 | [9] 0.071 | IRAK-1-4 Inhibitor I 0.044 | ibrutinib -0.017 | [10] -0.174 | ralimetinib 0.051 | [11] 0.018 | [12] 0.097 | [13] 0.066 | pinometostat 0.054 | [14] -0.059 | [15] -0.081

B4GAT1 (UniProt O43505)
inactive: erlotinib -0.037 | [1] 0.244 | [2] -0.035 | [3] 0.049 | [4] 0.18 | [5] -0.097 | [6] -0.012 | [7] -0.147 | [8] 0.105 | [9] 0.016 | IRAK-1-4 Inhibitor I 0.015 | ibrutinib 0.15 | [10] 0.078 | ralimetinib -0.012 | [11] -0.018 | [12] -0.12 | [13] -0.001 | pinometostat 0.018 | [14] -0.008 | [15] 0.016

BAHCC1 (UniProt Q9P281)
inactive: erlotinib 0.474 | [1] -0.293 | [2] -0.029 | [3] -0.107 | [4] 0.337 | [5] 0.101 | [6] -0.265 | [7] -0.035 | [8] 0.284 | [9] -0.019 | IRAK-1-4 Inhibitor I -0.075 | ibrutinib -0.149 | [10] -0.134 | ralimetinib -0.328 | [11] 0.095 | [12] -0.001 | [13] 0.126 | pinometostat -0.001 | [14] 0.034 | [15] 0.08

BLMH (UniProt Q13867)
inactive: erlotinib -0.061 | [1] -0.052 | [2] 0.041 | [3] 0.029 | [4] -0.021 | [5] 0.001 | [6] -0.06 | [7] -0.011 | [8] -0.035 | [9] -0.012 | IRAK-1-4 Inhibitor I 0.044 | ibrutinib 0.003 | [10] -0.045 | ralimetinib -0.112 | [11] -0.039 | [12] 0.063 | [13] -0.091 | pinometostat -0.023 | [14] 0.028 | [15] 0.011

Three consecutive records out of the list so far, for reference:
BIRC5 (UniProt O15392)
inactive: erlotinib -0.061 | [1] -0.039 | [2] -0.051 | [3] 0.044 | [4] -0.022 | [5] 0.065 | [6] -0.057 | [7] -0.109 | [8] 0.072 | [9] 0.071 | IRAK-1-4 Inhibitor I 0.044 | ibrutinib -0.017 | [10] -0.174 | ralimetinib 0.051 | [11] 0.018 | [12] 0.097 | [13] 0.066 | pinometostat 0.054 | [14] -0.059 | [15] -0.081

B4GAT1 (UniProt O43505)
inactive: erlotinib -0.037 | [1] 0.244 | [2] -0.035 | [3] 0.049 | [4] 0.18 | [5] -0.097 | [6] -0.012 | [7] -0.147 | [8] 0.105 | [9] 0.016 | IRAK-1-4 Inhibitor I 0.015 | ibrutinib 0.15 | [10] 0.078 | ralimetinib -0.012 | [11] -0.018 | [12] -0.12 | [13] -0.001 | pinometostat 0.018 | [14] -0.008 | [15] 0.016

BAHCC1 (UniProt Q9P281)
inactive: erlotinib 0.474 | [1] -0.293 | [2] -0.029 | [3] -0.107 | [4] 0.337 | [5] 0.101 | [6] -0.265 | [7] -0.035 | [8] 0.284 | [9] -0.019 | IRAK-1-4 Inhibitor I -0.075 | ibrutinib -0.149 | [10] -0.134 | ralimetinib -0.328 | [11] 0.095 | [12] -0.001 | [13] 0.126 | pinometostat -0.001 | [14] 0.034 | [15] 0.08

Continuation:

BCKDHB (UniProt P21953)
inactive: erlotinib -0.003 | [1] 0.052 | [2] -0.019 | [3] 0.083 | [4] -0.086 | [5] 0.107 | [6] 0.02 | [7] -0.016 | [8] 0.091 | [9] -0.003 | IRAK-1-4 Inhibitor I 0.072 | ibrutinib -0.039 | [10] 0.071 | ralimetinib 0.015 | [11] -0.008 | [12] -0.031 | [13] 0.016 | pinometostat 0.019 | [14] 0.068 | [15] -0.034

BAG4 (UniProt O95429)
inactive: erlotinib 0.001 | [1] -0.029 | [2] -0.049 | [3] 0.039 | [4] 0.068 | [5] -0.019 | [6] -0.033 | [7] -0.035 | [8] 0.055 | [9] -0.034 | IRAK-1-4 Inhibitor I -0.005 | ibrutinib -0.016 | [10] -0.127 | ralimetinib 0.008 | [11] 0.056 | [12] -0.08 | [13] -0.028 | pinometostat -0.026 | [14] -0.011 | [15] -0.111

ATRAID isoform 3 (UniProt Q6UW56)
inactive: erlotinib 0.061 | [1] -0.022 | [3] 0.069 | [4] 0.002 | [5] 0.038 | [6] -0.038 | [7] -0.06 | [8] -0.04 | [9] -0.046 | IRAK-1-4 Inhibitor I -0.041 | ibrutinib -0.044 | [10] -0.031 | ralimetinib 0.003 | [12] -0.038 | [13] 0.041 | pinometostat 0 | [14] 0.144 | [15] 0.077

ATRN (UniProt O75882)
inactive: erlotinib 0.006 | [1] 0.037 | [2] -0.113 | [3] -0.148 | [4] 0.098 | [5] 0.04 | [7] -0.166 | [8] -0.052 | [9] 0.018 | IRAK-1-4 Inhibitor I -0.084 | ibrutinib 0.083 | [10] 0.012 | [11] -0.02 | [12] 0.033 | pinometostat 0.079 | [15] 0.044

BCLAF1 (UniProt Q9NYF8)
active: [10] -0.503
inactive: erlotinib 0.036 | [1] 0.075 | [2] -0.046 | [3] 0.082 | [4] -0.304 | [5] -0.018 | [6] 0.143 | [7] -0.063 | [8] -0.089 | [9] -0.15 | IRAK-1-4 Inhibitor I -0.265 | ibrutinib 0.016 | ralimetinib 0.124 | [11] 0.094 | [12] -0.353 | [13] -0.027 | pinometostat -0.039 | [15] -0.076

ATXN2 (UniProt F8W0B5)
inactive: erlotinib 0.013 | [1] -0.026 | [3] 0.052 | [4] -0.087 | [6] -0.002 | [7] -0.006 | [10] -0.126 | ralimetinib -0.155 | [12] 0.002 | [13] 0.06 | [14] -0.048

AURKAIP1 (UniProt Q9NWT8)
inactive: erlotinib -0.316 | [1] -0.249 | [2] -0.287 | [3] 0.073 | [4] -0.082 | [6] -0.104 | [7] 0.053 | [8] 0.062 | [9] -0.269 | [10] 0.016 | ralimetinib 0.215 | [11] 0.126 | [12] -0.029 | [13] 0.178 | [15] -0.006

ATXN7L3 isoform 2 (UniProt Q14CW9)
inactive: erlotinib 0.069 | [1] -0.31 | [3] 0.071 | [4] 0.025 | [5] 0.159 | [6] -0.122 | [7] -0.037 | IRAK-1-4 Inhibitor I 0.114 | ibrutinib 0.147 | [10] 0.027 | ralimetinib 0.036 | [12] 0.066 | [13] -0.053 | pinometostat 0.093

ATXN3 isoform 1 (UniProt P54252)
inactive: erlotinib 0.082 | [1] 0.107 | [3] 0.038 | [4] -0.042 | [5] 0.082 | [6] -0.038 | [7] -0.115 | [8] -0.073 | [9] -0.002 | IRAK-1-4 Inhibitor I -0.031 | ibrutinib 0.028 | [10] 0.065 | ralimetinib 0.018 | [12] -0.314 | [13] 0.234 | pinometostat 0.021 | [15] 0.016

BAD (UniProt Q92934)
inactive: erlotinib 0.049 | [1] 0.079 | [2] 0.022 | [3] 0.124 | [4] 0.083 | [5] 0.023 | [6] 0.01 | [7] 0.025 | IRAK-1-4 Inhibitor I 0.057 | ibrutinib 0.024 | [10] -0.061 | ralimetinib -0.054 | [11] 0.077 | [12] -0.04 | [13] -0.041 | pinometostat 0.012

BECN1 (UniProt Q14457)
inactive: erlotinib -0.007 | [1] -0.035 | [2] 0.043 | [3] -0.042 | [4] -0.001 | [5] 0.085 | [6] -0.043 | [7] 0.008 | [8] 0.002 | [9] -0.042 | IRAK-1-4 Inhibitor I -0.003 | ibrutinib -0.018 | [10] 0.003 | ralimetinib -0.004 | [11] -0.011 | [12] -0.031 | [13] -0.015 | pinometostat -0.032 | [15] 0.084
